Measured values: patent publication US12281162 (LANOVA MEDICINES DEVELOPMENT, dated 2025)
Results are given in words; binding and its absence hold for the method and conditions named. Some binding calls cover weakened binding; strength is not graded here.

The chains behind the UniProt entries cited, without tags or fusion partners.
UniProt Q9NZD1: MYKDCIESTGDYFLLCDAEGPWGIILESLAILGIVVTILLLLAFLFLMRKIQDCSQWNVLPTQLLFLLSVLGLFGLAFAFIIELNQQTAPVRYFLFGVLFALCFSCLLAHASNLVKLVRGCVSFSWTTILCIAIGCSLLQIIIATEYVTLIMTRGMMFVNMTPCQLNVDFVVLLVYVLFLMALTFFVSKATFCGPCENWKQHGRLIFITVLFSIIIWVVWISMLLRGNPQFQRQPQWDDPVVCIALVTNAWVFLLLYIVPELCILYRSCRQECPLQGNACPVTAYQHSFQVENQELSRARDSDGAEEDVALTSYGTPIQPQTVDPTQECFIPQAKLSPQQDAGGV

Key:
[1] = target: human G-protein-coupled receptor family C group 5 member D (GPRC5D) (human) (UniProt Q9NZD1); experiment: FACS, CHO-K1/human GPRC5D, chimeric antibody
[2] = target: human G-protein-coupled receptor family C group 5 member D (GPRC5D) (human) (UniProt Q9NZD1); experiment: FACS, CHO-K1/GPRC5D
[3] = target: human G-protein-coupled receptor family C group 5 member D (GPRC5D) (human) (UniProt Q9NZD1); experiment: FACS, NCI-H929 cells
[4] = target: human G-protein-coupled receptor family C group 5 member D (GPRC5D) (human) (UniProt Q9NZD1); experiment: FACS, CHO-K1/human GPRC5D

| binding [1] | binding [2] | binding [3] | binding [4] | Binder |
| --- | --- | --- | --- | --- |
| binds | – | – | – | 40A5B2 (chimeric) (antibody, V domains shown) VH: EVQLQQSGPELVKPGASVKMSCKASGYTFTRNIMHWVKQKPGQGLEWIGYINPYNAGSKYNEKFKGKATLTSDISSSTAYMELSSLTSEDSAVYYCAREEVYYRYGAWFAYWGHGTLVTVSA VL: DIVLTQSPASLAVSLGQRATISCRASQSVSTSSYSYMHWYQQKPGQPPKLLIKYASNLESGVPARFSGSGSGTDFTLNIHPVEEEDTATYYCQHSWEIPRTFGGGTKLEIK |
| – | binds | binds | binds | 58-H1L1 (antibody, V domains shown, humanized 58F9G10, VH v1 x VL v1) VH: QVQLVQSGAEVKKPGASVKVSCKASGYSFTGYYIHWVRQAPGQGLEWMGYISSYNAATSFNQKFKGRVTMTRDTSTSTVYMELSSLRSEDTAVYYCARTELRGPWFAYWGQGTLVTVSS VL: DIQMTQSPSSLSASVGDRVTITCSASSSVSYMNWYQQKPGKAPKLLIYDTSKLASGVPSRFSGSGSGTDFTLTISSLQPEDFATYYCQQWSNNPLTFGQGTKLEIK |
| binds | – | – | – | 34-XI (antibody, V domains shown, also called 34D3H1 (chimeric)) VH: EVHLVESGGDLVKPGGSLKLSCAASGFTFSSYGMSWVRQTPDKRLEWVATISSGGSYTYYPDSVKGRFTISRDNAKNTLNLQMSSLKSEDTAMYYCARQGGDAMDYWGQGTSVTVSS VL: DIVLTQSPATLSVTPGDSVSLSCRASQSINNNLHWYQQKSHESPRLLIKYASQSISGIPSRFSGSGSGTDFTLSINSVETEDFGMYFCQQSNSRLTFGAGTKLELK |
| – | binds | binds | binds | 37-H1L1 (antibody, V domains shown, humanized 37B9C4, VH v1 x VL v1; also called 37B9C4 (H1L1)) VH: EVQLVESGGGLVQPGGSLRLSCAASGFTFSDYWMNWVRQAPGKGLEWVAEIRLKSNNYATHYAESVKGRFTISRDNAKNSLYLQMNSLRAEDTAVYYCARPLLWFRRYYAMDYWGQGTLVTVSS VL: DIQMTQSPSSLSASVGDRVTITCSASQGISNYLNWYQQKPGKAPKLLIYYTSSLHSGVPSRFSGSGSGTDFTLTISSLQPEDFATYYCQQYSKLPFTFGQGTKLEIK |

Continued, binder first:

| Binder | binding [1] | binding [2] | binding [3] | binding [4] |
| --- | --- | --- | --- | --- |
| 58F9G10-XI (antibody, V domains shown, also called 58F9G10 (chimeric); 58-XI) VH: EVQLQQSGPELVKTGASVKISCKASGYSFTGYYIHWVKQSHGKSLEWIGYISCYNGATSFNQKFKGKATFTVDTSSSTAYMQFNSLTSEDSAVYYCARTELRGPWFAYWGQGTLVTVSA VL: QTVLTQSPAIMSASPGEKVTMTCSASSSVSYMNWYQQKSGTSPKRWIYDTSKLASGVPARFSGSGSGTSYSLTISSMEAEDAATYYCQQWSNNPLTFGAGTKLELK | binds | – | – | – |
| 34-H1L1 (antibody, V domains shown, humanized 34D3H1, VH v1 x VL v1) VH: EVQLVESGGGLVKPGGSLRLSCAASGFTFSSYGMSWVRQAPGKGLEWVSTISSGGSYTYYPDSVKGRFTISRDNAKNSLYLQMNSLRAEDTAVYYCARQGGDAMDYWGQGTLVTVSS VL: DIQMTQSPSSLSASVGDRVTITCRASQSINNNLHWYQQKPGKAPKLLIYYASQSISGVPSRFSGSGSGTDFTLTISSLQPEDFATYYCQQSNSRLTFGGGTKVEIK | – | binds | binds | binds |
| 21C3C11B3 (chimeric) (antibody, V domains shown) VH: QVQLQQSGAELVRPGTSVKVSCKASGYAFINYLIEWIKQRPGQGLEWIGMINPGSGGTNYNEKFKDKATLTADKSSSTAYMQLSSLTSDDSAVYFCARNWDVWGQGTTLTVSS VL: DVVMTQSPLSLPVSLGDQASVSCRSSQSLVHSTGNTYLHWYLQKPGQSPKLLIYKVSNRFSGVPDRFSGSGSGTDFTLKISRVEAEDLGVYFCSQSTHVPWTFGGGTKLEIK | binds | – | – | – |
| 58-H3L1 (antibody, V domains shown, humanized 58F9G10, VH v3 x VL v1) VH: QVQLVQSGAEVKKPGASVKVSCKASGYSFTGYYIHWVKQAPGQGLEWIGYISSYNAATSFNQKFKGRVTFTVDTSTSTVYMEFSSLRSEDTAVYYCARTELRGPWFAYWGQGTLVTVSS VL: DIQMTQSPSSLSASVGDRVTITCSASSSVSYMNWYQQKPGKAPKLLIYDTSKLASGVPSRFSGSGSGTDFTLTISSLQPEDFATYYCQQWSNNPLTFGQGTKLEIK | – | binds | binds | binds |
| 37B9C4-XI (antibody, V domains shown, also called 37B9C4 (chimeric); 37-XI) VH: EVNLEESGGGLVQPGGSMKLSCVASGFTFSDYWMNWVRQSPEKGLEWVAEIRLKSNNYATHYAESVKGRFTISRDDSKSSVYLQMNNLRAEDTGIYYCTRPLLWFRRYYAMDYWGQGTSVTVSS VL: DIQMTQTTSSLSASLGDRITISCSASQGISNYLNWYQQKPDGTVKLLIYYTSSLHSGVPSRFSGSGSGTDYSLTISNLEPADIATYYCQQYSKLPFTFGSGTKLEIK | binds | – | – | – |
| 6-H3L3 (antibody, V domains shown, humanized 6G10D9, VH v3 x VL v3) VH: QVQLVQSGAEVAKPGASVKVSCKASGYTFTTYTMHWVKQAPGQGLEWLGYINPSSGYTNYNQKFKDRVTMTADTSTSTVYMELSSLRSEDTAVYYCASLRSRGYFDYWGQGTLVTVSS VL: DIQMTQSPSFLSTSVGDRVTITCKASQNVGTAVVWYQQKPGKSPKLLIYSASNRYTGVPSRFSGSGSGTEFTLTISSMQPEDFATFFCQQYSSYPYTFGQGTKLEIK | – | binds | binds | binds |
| 6-H4L3 (antibody, V domains shown, humanized 6G10D9, VH v4 x VL v3) VH: QVQLVQSGAEVAKPGASVKMSCKASGYTFTTYTMHWVKQAPGQGLEWLGYINPSSGYTNYNQKFKDRVTLTADTSTSTVYMELSSLRSEDTAVYYCASLRSRGYFDYWGQGTLLTVSS VL: DIQMTQSPSFLSTSVGDRVTITCKASQNVGTAVVWYQQKPGKSPKLLIYSASNRYTGVPSRFSGSGSGTEFTLTISSMQPEDFATFFCQQYSSYPYTFGQGTKLEIK | – | – | binds | binds |
| 38A10E9A11 (chimeric) (antibody, V domains shown, also called 38A9E10A11) VH: QVQLQQSGAELARPGASVKMSCKASGYTFTTYTMHWVKQRPGQGLEWIGYINPSSGYTNYNQKFKDKATLTAGKSSSTAYMQLSSLTSEDSAVYYCASLRSRGYFDYWGRGTTLTVSS VL: DIVMTQSQKFLSTSVGDRVSITCKASQNVGTAVAWYQQKPGQSPKLLIYSASNRYTGVPDRFTGSGSGTDFTLTISNMQSEDLAGYFCQQYSSYPYTFGGGTKLEIK | binds | – | – | – |
| 6G10D9-XI (antibody, V domains shown, also called 6G10D9 (chimeric); 6G1009-X1) VH: QVQLQQSGAELARPGASVKMSCKASGYTFTTYTMHWVKQRPGQGLEWLGYINPSSGYTNYNQKFKDKATLTAGKSSSTAYMQLSSLTSEDSAVYYCASLRSRGYFDYWGQGTTLTVSS VL: DIVMTQSQTFMSTSVGDRVRITCKASQNVGTAVVWYQQKTGQSPRLLIYSASNRYTGVPDRFTGSGSGTDFTLTISNMQSEDLADFFCQQYSSYPYTFGGGTKLEIK | binds | – | – | – |
| 29B2C10 (chimeric) (antibody, V domains shown) VH: EVQLQQSGPELVKPGASMKLSCKASGYSFTGYTMHWVKQSHGENLEWIGLINPYNGGTNYNQKFKGKATLTVDKSSSTAYMELLSLTSEDSAVYYCSRWGLRRAMDYWGQGTSVTVSS VL: DIVMTQSQKFMSTSVGDRVSVTCKASQNVGSNVAWYQQKPGQSPKALIYSASYRYSGVPDRFTGNGSGTDFTLTISNVQSEDLAEYFCQQYYNSPWTFGGGTKLEIK | binds | – | – | – |
